Reference: the supplement of paper PMC6411743
± gives the standard deviation of the averaged measurements. The list shows a part of the results, in another mix than the full data. Most values lie at the level of the controls, where differences are scatter.

Target: A0A0A0MT26|P13637 and related entries (UniProt P13637)
Test: NP40-soluble protein abundance relative to vehicle (solubility fold change) (ratio); higher = more soluble protein in presence of ATP
How it was run: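 Across three independent experiments, values are fold changes against the detergent-processed vehicle for each replicate, based on vsn-normalised intensities. The samples were Jurkat crude lysate treated with eight concentrations (0.1 to 10 mM) for 10 min at room temperature and then 3 min at 37 °C. Lysate was solubilised with 0.8% NP40 and benzonase, ultracentrifuged, and the supernatant analysed by TMT-labelled LC-MS/MS.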

Nc1ncnc2c1ncn2[C@@H]1O[C@H](COP(=O)(O)OP(=O)(O)OP(=O)(O)O)[C@@H](O)[C@H]1O [adenosine triphosphate]
NP40-soluble protein abundance (concentration: 0.1mM): 1.06 ± 0.029
NP40-soluble protein abundance (concentration: 0.5mM): 1.03 ± 0.043
